Measurements reported in patent US20120282271A1.
These are yes or no findings as the source states them, for the method shown. Some results given as binding are weak or reduced against the parent protein; the word gives no strength. Where a sequence is shown, tags or fusion partners need not be part of it.

By UniProt entry, the sequences of proteins in these tests, tags left out. Where a name states a change or a piece, a line headed by the entry shows the natural chain unless it says otherwise.
UniProt P26927: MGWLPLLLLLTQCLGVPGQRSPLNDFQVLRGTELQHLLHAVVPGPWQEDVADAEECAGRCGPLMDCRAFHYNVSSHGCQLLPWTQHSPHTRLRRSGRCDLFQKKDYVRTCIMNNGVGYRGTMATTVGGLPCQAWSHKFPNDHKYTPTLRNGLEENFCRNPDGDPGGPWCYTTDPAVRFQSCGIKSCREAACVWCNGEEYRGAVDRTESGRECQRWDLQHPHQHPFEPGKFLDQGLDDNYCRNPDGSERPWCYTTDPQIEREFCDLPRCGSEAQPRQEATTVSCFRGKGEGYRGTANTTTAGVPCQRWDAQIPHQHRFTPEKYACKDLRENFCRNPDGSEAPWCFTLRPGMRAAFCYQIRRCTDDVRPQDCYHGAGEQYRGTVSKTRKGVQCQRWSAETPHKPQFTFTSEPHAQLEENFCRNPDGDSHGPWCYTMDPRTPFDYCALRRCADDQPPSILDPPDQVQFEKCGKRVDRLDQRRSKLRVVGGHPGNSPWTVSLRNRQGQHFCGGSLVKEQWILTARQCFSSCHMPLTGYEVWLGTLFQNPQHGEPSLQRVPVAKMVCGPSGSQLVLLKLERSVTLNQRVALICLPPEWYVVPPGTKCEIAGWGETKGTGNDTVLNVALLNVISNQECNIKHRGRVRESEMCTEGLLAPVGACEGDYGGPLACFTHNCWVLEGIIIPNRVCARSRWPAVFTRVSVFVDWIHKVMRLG

Legend:
[1] = target: T1, Ron (Sema IPT1)-IgG fusion protein (human) (UniProt Q04912); experiment: ELISA, Ron (Sema IPT1)-IgG captured on anti-human IgG Fc coated plates, His-tagged MSP detected with anti-His-HRP
T1 sequence (looked up): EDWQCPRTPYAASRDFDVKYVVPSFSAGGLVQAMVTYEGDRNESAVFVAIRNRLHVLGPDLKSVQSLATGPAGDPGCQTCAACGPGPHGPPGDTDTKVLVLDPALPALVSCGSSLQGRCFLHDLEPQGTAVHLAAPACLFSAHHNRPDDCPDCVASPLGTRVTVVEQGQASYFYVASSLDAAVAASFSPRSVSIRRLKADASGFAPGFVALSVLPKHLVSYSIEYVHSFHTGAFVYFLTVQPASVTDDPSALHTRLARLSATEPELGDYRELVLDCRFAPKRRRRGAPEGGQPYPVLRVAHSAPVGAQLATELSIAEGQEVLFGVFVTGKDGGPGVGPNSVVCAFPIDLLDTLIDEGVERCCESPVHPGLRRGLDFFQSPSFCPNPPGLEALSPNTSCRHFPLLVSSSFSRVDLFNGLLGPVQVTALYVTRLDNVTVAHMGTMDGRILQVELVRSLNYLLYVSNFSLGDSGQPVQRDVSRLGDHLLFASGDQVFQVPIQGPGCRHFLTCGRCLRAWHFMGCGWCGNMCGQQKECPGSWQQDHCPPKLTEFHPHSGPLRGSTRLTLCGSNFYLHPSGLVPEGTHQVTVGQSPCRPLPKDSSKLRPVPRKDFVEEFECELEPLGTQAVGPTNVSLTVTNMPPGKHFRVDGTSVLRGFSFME

[2] = target: T1, Ron (Sema IPT1)-IgG fusion protein (human); experiment: SPR, Ron-Fc captured by an anti-Fc antibody on a CM5 chip, 1:1 binding model
[3] = target: T1, Ron (Sema IPT1)-IgG fusion protein (human); experiment: SPR (BIAcore-3000), Ron (Sema IPT1)-IgG captured by amine-coupled anti-human IgG on a CM5 chip, MSP injected as analyte

Measured: binding

hepsin-activated MSP (recombinant human macrophage-stimulating protein, C672A, cleaved by hepsin at Arg483-Val484) (from UniProt P26927 19-483; P26927 484-711) (ligand)
binds: all assays above
